In patent US20170296680A1:
No constants are given. Whether binding was seen depends on the method and setting. Binding calls can cover weak binding; strength is not graded here.

Target: hyperphosphorylated tau (tau-p; University of Victoria)
Assay: SPR (Biacore T200), sdAb injected over immobilized hyperphosphorylated tau, 20-6000 nM per the legend

Row | binding | Binder
1 | binds | Tau81 (VHH, not shown: large carriers) VHH: QVQLVESGGGLVQPGGSLKLSCAASGFTGDHYAMSWVRQAPGKGLEWVSTIYSYSPNTYYVDSVKDRFTISLDNAKNTLYLQMNSLKPEDTAVYYCAADLEVAEYYAYWGQGTQVTVSS
2 | binds | Tau15 (VHH, not shown: large carriers) VHH: QVKLEESGGGLVQPGGSLRLSCAASGFTFSNFAMTWVRQSPGKGLEWVSAIDNDGGRTSYSDSVKGRFTISRDNAKNTLYLQMNSLKPEDTAMYYCAAMNLATRKWELWGQGTQVTVSS
